# Reference: the supplement of paper PMC8728848
# The other results are listed elsewhere or left out.
# Experiments:
# Assay in all cases: glycan array binding signal (z-score within array); higher = stronger binding
# Details in all cases: glycan notation: IUPAC condensed, linker removed
# [1] = target: Gal(b1-4)GlcNAc(b1-2)[Gal(b1-4)GlcNAc(b1-6)]Man(a1-6)[Gal(b1-4)GlcNAc(b1-2)Man(a1-3)]Man(b1-4)GlcNAc(b1-4)[Fuc(a1-6)]GlcNAc
# Summary of the method: (§1)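 The binding signal is a Z-score computed within each array and averaged over linkers. Arrays of the same protein sequence at different concentrations or buffers were also averaged together. Data originate from 3228 arrays in the Consortium for Functional Glycomics database, kept only where the protein sequence was available.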
# [2] = target: Gal(b1-4)GlcNAc(b1-2)[Gal(b1-4)GlcNAc(b1-6)]Man(a1-6)[GlcNAc(b1-4)][Gal(b1-4)GlcNAc(b1-2)Man(a1-3)]Man(b1-4)GlcNAc(b1-4)GlcNAc
# Summary of the method: as §1
# [3] = target: Gal(b1-4)GlcNAc(b1-2)[Gal(b1-4)GlcNAc(b1-6)]Man(a1-6)[GlcNAc(b1-4)][Gal(b1-4)GlcNAc(b1-2)[Gal(b1-4)GlcNAc(b1-4)]Man(a1-3)]Man(b1-4)GlcNAc(b1-4)[Fuc(a1-6)]GlcNAc
# Summary of the method: as §1
# [4] = target: Gal(b1-4)GlcNAc(b1-3)Gal(b1-3)GalNAc
# Summary of the method: as §1
# [5] = target: Gal(b1-4)GlcNAc(b1-3)Gal(b1-3)GlcNAc
# Summary of the method: as §1
# [6] = target: Gal(b1-4)GlcNAc(b1-3)Gal(b1-4)Glc
# Summary of the method: as §1
# [7] = target: Gal(b1-4)GlcNAc(b1-3)Gal(b1-4)GlcNAc
# Summary of the method: as §1
# [8] = target: Gal(b1-4)GlcNAc(b1-3)Gal(b1-4)GlcNAc(b1-2)Man(a1-3)[Gal(b1-4)GlcNAc(b1-3)Gal(b1-4)GlcNAc(b1-2)Man(a1-6)]Man(b1-4)GlcNAc(b1-4)GlcNAc
# Summary of the method: as §1
# [9] = target: Gal(b1-4)GlcNAc(b1-3)Gal(b1-4)GlcNAc(b1-2)Man(a1-3)[Gal(b1-4)GlcNAc(b1-3)Gal(b1-4)GlcNAc(b1-2)Man(a1-6)]Man(b1-4)GlcNAc(b1-4)[Fuc(a1-6)]GlcNAc
# Summary of the method: as §1
# [10] = target: Gal(b1-4)GlcNAc(b1-3)Gal(b1-4)GlcNAc(b1-2)[Gal(b1-4)GlcNAc(b1-3)Gal(b1-4)GlcNAc(b1-6)]Man(a1-6)[Gal(b1-4)GlcNAc(b1-3)Gal(b1-4)GlcNAc(b1-2)Man(a1-3)]Man(b1-4)GlcNAc(b1-4)GlcNAc
# Summary of the method: as §1
# [11] = target: Gal(b1-4)GlcNAc(b1-3)Gal(b1-4)GlcNAc(b1-2)[Gal(b1-4)GlcNAc(b1-3)Gal(b1-4)GlcNAc(b1-6)]Man(a1-6)[Gal(b1-4)GlcNAc(b1-3)Gal(b1-4)GlcNAc(b1-2)Man(a1-3)]Man(b1-4)GlcNAc(b1-4)[Fuc(a1-6)]GlcNAc
# Summary of the method: as §1
# [12] = target: Gal(b1-4)GlcNAc(b1-3)Gal(b1-4)GlcNAc(b1-3)Gal(b1-4)GlcNAc
# Summary of the method: as §1
# [13] = target: Gal(b1-4)GlcNAc(b1-3)Gal(b1-4)GlcNAc(b1-3)Gal(b1-4)GlcNAc(b1-2)Man(a1-3)[Gal(b1-4)GlcNAc(b1-3)Gal(b1-4)GlcNAc(b1-3)Gal(b1-4)GlcNAc(b1-2)Man(a1-6)]Man(b1-4)GlcNAc(b1-4)GlcNAc
# Summary of the method: as §1
# [14] = target: Gal(b1-4)GlcNAc(b1-3)Gal(b1-4)GlcNAc(b1-3)Gal(b1-4)GlcNAc(b1-2)Man(a1-3)[Gal(b1-4)GlcNAc(b1-3)Gal(b1-4)GlcNAc(b1-3)Gal(b1-4)GlcNAc(b1-2)Man(a1-6)]Man(b1-4)GlcNAc(b1-4)[Fuc(a1-6)]GlcNAc
# Summary of the method: as §1
# [15] = target: Gal(b1-4)GlcNAc(b1-3)Gal(b1-4)GlcNAc(b1-3)Gal(b1-4)GlcNAc(b1-2)[Gal(b1-4)GlcNAc(b1-3)Gal(b1-4)GlcNAc(b1-3)Gal(b1-4)GlcNAc(b1-6)]Man(a1-6)[Gal(b1-4)GlcNAc(b1-3)Gal(b1-4)GlcNAc(b1-3)Gal(b1-4)GlcNAc(b1-2)Man(a1-3)]Man(b1-4)GlcNAc(b1-4)[Fuc(a1-6)]GlcNAc
# Summary of the method: as §1
# [16] = target: Gal(b1-4)GlcNAc(b1-3)Gal(b1-4)GlcNAc(b1-3)Gal(b1-4)GlcNAc(b1-3)Gal(b1-4)GlcNAc(b1-2)Man(a1-3)[Gal(b1-4)GlcNAc(b1-3)Gal(b1-4)GlcNAc(b1-3)Gal(b1-4)GlcNAc(b1-3)Gal(b1-4)GlcNAc(b1-2)Man(a1-6)]Man(b1-4)GlcNAc(b1-4)GlcNAc
# Summary of the method: as §1
# [17] = target: Gal(b1-4)GlcNAc(b1-3)Gal(b1-4)GlcNAc(b1-3)Gal(b1-4)GlcNAc(b1-3)Gal(b1-4)GlcNAc(b1-2)Man(a1-3)[Gal(b1-4)GlcNAc(b1-3)Gal(b1-4)GlcNAc(b1-3)Gal(b1-4)GlcNAc(b1-3)Gal(b1-4)GlcNAc(b1-2)Man(a1-6)]Man(b1-4)GlcNAc(b1-4)[Fuc(a1-6)]GlcNAc
# Summary of the method: as §1
# [18] = target: Gal(b1-4)GlcNAc(b1-3)Gal(b1-4)GlcNAc(b1-3)Gal(b1-4)GlcNAc(b1-3)Gal(b1-4)GlcNAc(b1-2)[Gal(b1-4)GlcNAc(b1-3)Gal(b1-4)GlcNAc(b1-3)Gal(b1-4)GlcNAc(b1-3)Gal(b1-4)GlcNAc(b1-6)]Man(a1-6)[Gal(b1-4)GlcNAc(b1-3)Gal(b1-4)GlcNAc(b1-3)Gal(b1-4)GlcNAc(b1-3)Gal(b1-4)GlcNAc(b1-2)Man(a1-3)]Man(b1-4)GlcNAc(b1-4)[Fuc(a1-6)]GlcNAc
# Summary of the method: as §1
# [19] = target: Gal(b1-4)GlcNAc(b1-3)Gal(b1-4)GlcNAc(b1-3)Gal(b1-4)GlcNAc(b1-3)Gal(b1-4)GlcNAc(b1-3)Gal(b1-4)GlcNAc(b1-2)Man(a1-3)[Gal(b1-4)GlcNAc(b1-3)Gal(b1-4)GlcNAc(b1-3)Gal(b1-4)GlcNAc(b1-3)Gal(b1-4)GlcNAc(b1-3)Gal(b1-4)GlcNAc(b1-2)Man(a1-6)]Man(b1-4)GlcNAc(b1-4)GlcNAc
# Summary of the method: as §1
# [20] = target: Gal(b1-4)GlcNAc(b1-3)Gal(b1-4)GlcNAc(b1-3)Gal(b1-4)GlcNAc(b1-3)Gal(b1-4)GlcNAc(b1-3)Gal(b1-4)GlcNAc(b1-2)Man(a1-3)[Gal(b1-4)GlcNAc(b1-3)Gal(b1-4)GlcNAc(b1-3)Gal(b1-4)GlcNAc(b1-3)Gal(b1-4)GlcNAc(b1-3)Gal(b1-4)GlcNAc(b1-2)Man(a1-6)]Man(b1-4)GlcNAc(b1-4)[Fuc(a1-6)]GlcNAc
# Summary of the method: as §1
# [21] = target: Gal(b1-4)GlcNAc(b1-3)Gal(b1-4)GlcNAc(b1-3)Gal(b1-4)GlcNAc(b1-3)Gal(b1-4)GlcNAc(b1-3)Gal(b1-4)GlcNAc(b1-2)[Gal(b1-4)GlcNAc(b1-3)Gal(b1-4)GlcNAc(b1-3)Gal(b1-4)GlcNAc(b1-3)Gal(b1-4)GlcNAc(b1-3)Gal(b1-4)GlcNAc(b1-6)]Man(a1-6)[Gal(b1-4)GlcNAc(b1-3)Gal(b1-4)GlcNAc(b1-3)Gal(b1-4)GlcNAc(b1-3)Gal(b1-4)GlcNAc(b1-3)Gal(b1-4)GlcNAc(b1-2)Man(a1-3)]Man(b1-4)GlcNAc(b1-4)[Fuc(a1-6)]GlcNAc
# Summary of the method: as §1
# [22] = target: Gal(b1-4)GlcNAc(b1-3)Gal(b1-4)GlcNAc(b1-3)Gal(b1-4)GlcNAc(b1-3)Gal(b1-4)GlcNAc(b1-3)Gal(b1-4)GlcNAc(b1-3)Gal(b1-4)GlcNAc(b1-2)Man(a1-3)[Gal(b1-4)GlcNAc(b1-3)Gal(b1-4)GlcNAc(b1-3)Gal(b1-4)GlcNAc(b1-3)Gal(b1-4)GlcNAc(b1-3)Gal(b1-4)GlcNAc(b1-3)Gal(b1-4)GlcNAc(b1-2)Man(a1-6)]Man(b1-4)GlcNAc(b1-4)GlcNAc
# Summary of the method: as §1
# [23] = target: Gal(b1-4)GlcNAc(b1-3)Gal(b1-4)GlcNAc(b1-3)GalNAc
# Summary of the method: as §1
binder,measurement,setting,value
"XTP3-B-MRH1 (Homo sapiens), Q96DZ1 (protein) LLEPLFKQSSCSYRIESYWTYEVCHGKHIRQYHEEKETGQKINIHEYYLGNMLAKNLLFEKEREAEEKEKSNEIPTKNIEGQMTPYYPVGMGNGTPCSLKQNRPRSSTVMYICHPESKHEILSVAEVTTCEYEVVILTPLLCSHPKYRFRA",glycan array binding signal (z-score),[1],1.61
same,glycan array binding signal (z-score),[2],-0.494
same,glycan array binding signal (z-score),[3],-0.141
same,glycan array binding signal (z-score),[4],-1.39
same,glycan array binding signal (z-score),[5],-0.167
same,glycan array binding signal (z-score),[6],-0.377
same,glycan array binding signal (z-score),[7],2.97
same,glycan array binding signal (z-score),[8],3.79
same,glycan array binding signal (z-score),[9],1.96
same,glycan array binding signal (z-score),[10],0.072
same,glycan array binding signal (z-score),[11],1.26
same,glycan array binding signal (z-score),[12],1.11
same,glycan array binding signal (z-score),[13],0.049
same,glycan array binding signal (z-score),[14],1.67
same,glycan array binding signal (z-score),[15],1.19
same,glycan array binding signal (z-score),[16],-0.342
same,glycan array binding signal (z-score),[17],0.319
same,glycan array binding signal (z-score),[18],1.37
same,glycan array binding signal (z-score),[19],0.499
same,glycan array binding signal (z-score),[20],-0.69
same,glycan array binding signal (z-score),[21],0.11
same,glycan array binding signal (z-score),[22],0.082
same,glycan array binding signal (z-score),[23],-1.07

# At a glance, part of the list above.
binder,measurement,setting,value
"XTP3-B-MRH1 (Homo sapiens), Q96DZ1 (protein) LLEPLFKQSSCSYRIESYWTYEVCHGKHIRQYHEEKETGQKINIHEYYLGNMLAKNLLFEKEREAEEKEKSNEIPTKNIEGQMTPYYPVGMGNGTPCSLKQNRPRSSTVMYICHPESKHEILSVAEVTTCEYEVVILTPLLCSHPKYRFRA",glycan array binding signal (z-score),[18],1.37
same,glycan array binding signal (z-score),[19],0.499
